Reference: article PMC4737156, “Taking a molecular motor for a spin: helicase mechanism studied by spin labeling and PELDOR”
Construct, isoform or probe ends are uncertain for at least one entry. At least one verdict was read from the data and is not stated in words by the source.

How the values were obtained:
[1] = target: PcrA V344C/Q506C-R1 (2A-2B) (Bacillus stearothermophilus) (UniProt P56255); test: PELDOR (DEER) EPR; settings: DNA 150 uM, nucleotide 10-fold excess, 1 mM MgCl2, 5% EG-d6, XPD 40-50 uM, DNA about 2x, recombinant protein, folded or branched DNA
[2] = target: PcrA E74C/Q506C-R1 (1A-2B) (Bacillus stearothermophilus) (UniProt P56255); test: PELDOR (DEER) EPR; settings: DNA 150 uM, nucleotide 10-fold excess, 1 mM MgCl2, 5% EG-d6, XPD 40-50 uM, DNA about 2x, recombinant protein, folded or branched DNA

Measured: binding result

CGAGCACTGCTTTAGCAGTGCTCGTTTTTTTTTT [hairpin with 3'-(dT)10 overhang]
binds: [1]; ADP, 1 mM MgCl2, 36.7 and 44.4 A (1:1) | [1]; AMP-PNP, 1 mM MgCl2, 36.7 and 44.1 A (1:1) | [2]; ADP, 1 mM MgCl2, 34 and 45 A (0.5:1) | [2]; AMP-PNP, 1 mM MgCl2, 33 and 46 A (0.4:1)
